No constants are given. Whether binding was seen depends on the method and setting. In cells and extracts the contact can be indirect. Here binding means that the protein was enriched with, or labelled near, the bait; the list need not be complete.
Key:
[1] = target: Nipah virus fusion (F) glycoprotein fused to Myc-TurboID (Nipah virus) (UniProt Q9IH63); assay: proximity labelling
[2] = target: Nipah virus attachment (G) glycoprotein fused to Myc-TurboID (Nipah virus) (UniProt Q9IH62); assay: proximity labelling

Sequences of proteins named here, by UniProt entry; tags and fusion partners are left off. Residues count along the entry.
UniProt Q9IH63, residues 27-546: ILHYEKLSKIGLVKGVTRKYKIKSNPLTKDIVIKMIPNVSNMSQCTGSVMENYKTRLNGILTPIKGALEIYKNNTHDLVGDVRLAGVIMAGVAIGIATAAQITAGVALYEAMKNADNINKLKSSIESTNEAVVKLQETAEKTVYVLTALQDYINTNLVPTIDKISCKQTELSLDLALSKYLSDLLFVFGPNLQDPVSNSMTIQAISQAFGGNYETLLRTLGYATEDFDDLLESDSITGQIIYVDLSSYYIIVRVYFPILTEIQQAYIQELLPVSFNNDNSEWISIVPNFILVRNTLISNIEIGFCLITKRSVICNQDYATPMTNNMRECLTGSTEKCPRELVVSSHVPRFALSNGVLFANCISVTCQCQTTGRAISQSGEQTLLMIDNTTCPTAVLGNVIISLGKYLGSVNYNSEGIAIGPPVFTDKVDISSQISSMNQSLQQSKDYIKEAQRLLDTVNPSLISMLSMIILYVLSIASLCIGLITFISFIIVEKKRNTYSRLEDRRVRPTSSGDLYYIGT
UniProt Q9IH62: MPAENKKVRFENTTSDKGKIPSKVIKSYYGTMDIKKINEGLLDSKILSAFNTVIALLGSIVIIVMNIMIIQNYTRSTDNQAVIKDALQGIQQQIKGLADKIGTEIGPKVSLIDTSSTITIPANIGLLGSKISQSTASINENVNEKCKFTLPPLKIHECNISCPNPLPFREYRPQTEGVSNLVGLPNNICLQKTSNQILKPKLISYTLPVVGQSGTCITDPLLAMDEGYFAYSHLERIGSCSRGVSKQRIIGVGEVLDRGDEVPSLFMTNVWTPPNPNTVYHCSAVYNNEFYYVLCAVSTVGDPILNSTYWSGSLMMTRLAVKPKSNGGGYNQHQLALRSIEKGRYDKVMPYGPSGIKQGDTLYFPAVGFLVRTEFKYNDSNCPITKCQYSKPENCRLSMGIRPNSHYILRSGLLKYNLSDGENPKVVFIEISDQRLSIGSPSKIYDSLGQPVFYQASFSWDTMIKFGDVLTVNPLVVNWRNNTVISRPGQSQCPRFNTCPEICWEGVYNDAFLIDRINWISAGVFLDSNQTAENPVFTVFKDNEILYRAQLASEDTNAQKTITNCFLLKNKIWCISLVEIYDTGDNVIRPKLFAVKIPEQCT
UniProt P16949: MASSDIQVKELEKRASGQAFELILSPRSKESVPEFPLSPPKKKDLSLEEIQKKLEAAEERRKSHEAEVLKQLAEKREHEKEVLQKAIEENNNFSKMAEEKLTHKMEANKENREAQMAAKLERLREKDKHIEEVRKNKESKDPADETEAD

Substance	binding [1]	binding [2]
Cortactin (from UniProt Q14247-1 1-550)	binds	binds
stathmin 1 (from UniProt P16949 1-149)	binds	binds

Source: article PMC11012870
